Values quoted from earlier work, collected in patent US9173940B1, “Mixture of betamethasone and tranilast with a transdermal gel for scar treatment” (PROFESSIONAL COMPOUNDING CENTERS OF AMERICA (PCCA), priority 2014, dated 2015).
At least one structure is not confirmed: it was looked up by name or label, or the drawing left a doubt.

Legend:
[1] = system: fibroblasts derived from human keloid tissues; details: cultured fibroblasts
human keloid tissues = details: keloid tissue transplanted into mice

COc1ccc(/C=C/C(=O)Nc2ccccc2C(=O)O)cc1OC [Tranilast]
collagen synthesis (granulation-tissues; carrageenin-induced granulation tissue, rats): inhibits the collagen synthesis | weight of granulation (granulation-tissues; rat, in vivo): decreases the weight of granulation | collagen synthesis versus cell proliferation [1]: specifically suppresses the collagen synthesis rather than the cell proliferation | collagen synthesis (human keloid tissues): inhibits the collagen synthesis
